# Test results: the supplement of paper PMC5355238
# Structures can show the parent of a compound that is named as a salt. This is one part of the list. Most values lie at the level of the controls, where differences are scatter.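 Reh, a human leukemia cell line, is read out by flow cytometry as the median γH2AX antibody signal in S-phase cells; the score counts standard deviations from the median difference of each paired plate set. Scores above 2.5 were candidate hits; scores below -2 mark compounds lowering MK1775-induced damage.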
# Test system: Reh
# Experiment: Z' of S-phase gammaH2AX difference (drug + MK1775 minus drug alone) (Z-score); higher = stronger synergistic S-phase DNA damage with MK1775
# Conditions: MK1775 concentration 400 nM; first compound 10 µM; 4 h
row,Structure (SMILES),Z' of S-phase gammaH2AX difference (Z-score)
1,"Nc1c2c(nc3ccccc13)CCCC2 [9-Amino-1,2,3,4-tetrahydroacridine hydrochloride] + C=CCn1c(=O)c2cnc(Nc3ccc(N4CCN(C)CC4)cc3)nc2n1-c1cccc(C(C)(C)O)n1 [MK1775]",inactive: -0.374
2,Cc1nc2sccn2c(=O)c1CCN1CCC(=C(c2ccccc2)c2ccc(F)cc2)CC1 [Diacylglycerol kinase inhibitor I] + C=CCn1c(=O)c2cnc(Nc3ccc(N4CCN(C)CC4)cc3)nc2n1-c1cccc(C(C)(C)O)n1 [MK1775],inactive: -0.479
3,"NC(N)=NC(=O)c1nc(Cl)c(N2CCCCCC2)nc1N [5-(N,N-hexamethylene)amiloride] + C=CCn1c(=O)c2cnc(Nc3ccc(N4CCN(C)CC4)cc3)nc2n1-c1cccc(C(C)(C)O)n1 [MK1775]",inactive: 1.17
4,CC1=C(CC(=O)O)c2cc(F)ccc2/C1=C\c1ccc(S(C)(=O)=O)cc1 [Sulindac sulfone] + C=CCn1c(=O)c2cnc(Nc3ccc(N4CCN(C)CC4)cc3)nc2n1-c1cccc(C(C)(C)O)n1 [MK1775],inactive: -1.62
5,O=C1CN(/N=C/c2ccc(-c3ccc([N+](=O)[O-])cc3)o2)C(=O)N1 [Dantrolene sodium] + C=CCn1c(=O)c2cnc(Nc3ccc(N4CCN(C)CC4)cc3)nc2n1-c1cccc(C(C)(C)O)n1 [MK1775],inactive: 0.702
6,Nc1[nH]nc2nnc(-c3c(-c4ccccc4)nn4ccccc34)cc12 + C=CCn1c(=O)c2cnc(Nc3ccc(N4CCN(C)CC4)cc3)nc2n1-c1cccc(C(C)(C)O)n1 [MK1775],inactive: 0.119
7,CC(C)CN(C)c1nc(N)c(C(=O)N=C(N)N)nc1Cl [5-(N-Methyl-N-isobutyl)amiloride] + C=CCn1c(=O)c2cnc(Nc3ccc(N4CCN(C)CC4)cc3)nc2n1-c1cccc(C(C)(C)O)n1 [MK1775],inactive: 0.825
8,O=C(c1ccc2c(c1)OCCO2)N1CCCCC1 + C=CCn1c(=O)c2cnc(Nc3ccc(N4CCN(C)CC4)cc3)nc2n1-c1cccc(C(C)(C)O)n1 [MK1775],inactive: -0.114
9,CN1CCc2cc(O)c(O)cc2C(c2ccccc2)C1 (centres undefined) + C=CCn1c(=O)c2cnc(Nc3ccc(N4CCN(C)CC4)cc3)nc2n1-c1cccc(C(C)(C)O)n1 [MK1775],inactive: -0.647
10,CN1C(C)(C)CCCC1(C)C [Pempidine tartrate] + C=CCn1c(=O)c2cnc(Nc3ccc(N4CCN(C)CC4)cc3)nc2n1-c1cccc(C(C)(C)O)n1 [MK1775],inactive: 0.815
11,CCCCCC[C@@H]([C@@H](C)O)n1cnc2c(N)ncnc21 [erythro-9-(2-Hydroxy-3-nonyl)adenine hydrochloride] + C=CCn1c(=O)c2cnc(Nc3ccc(N4CCN(C)CC4)cc3)nc2n1-c1cccc(C(C)(C)O)n1 [MK1775],inactive: 1.22
12,CC[N+](C)(C)Cc1ccccc1Br [Bretylium tosylate] + C=CCn1c(=O)c2cnc(Nc3ccc(N4CCN(C)CC4)cc3)nc2n1-c1cccc(C(C)(C)O)n1 [MK1775],inactive: 0.301
13,C[N+](C)(C)CCCCCC[N+](C)(C)C [Hexamethonium bromide] + C=CCn1c(=O)c2cnc(Nc3ccc(N4CCN(C)CC4)cc3)nc2n1-c1cccc(C(C)(C)O)n1 [MK1775],inactive: -0.634
14,C[N+](C)(C)CCCCCC[N+](C)(C)C [Hexamethonium dichloride] + C=CCn1c(=O)c2cnc(Nc3ccc(N4CCN(C)CC4)cc3)nc2n1-c1cccc(C(C)(C)O)n1 [MK1775],inactive: 0.59
15,O=C(O)c1cccnc1Nc1cccc(C(F)(F)F)c1 [Niflumic acid] + C=CCn1c(=O)c2cnc(Nc3ccc(N4CCN(C)CC4)cc3)nc2n1-c1cccc(C(C)(C)O)n1 [MK1775],inactive: 0.233
16,Cc1oncc1C(=O)Nc1ccc(C(F)(F)F)cc1 [Leflunomide] + C=CCn1c(=O)c2cnc(Nc3ccc(N4CCN(C)CC4)cc3)nc2n1-c1cccc(C(C)(C)O)n1 [MK1775],inactive: -0.131
17,"Cc1cn(C2C=CC(CO)O2)c(=O)[nH]c1=O (centres undefined) [2',3'-didehydro-3'-deoxythymidine] + C=CCn1c(=O)c2cnc(Nc3ccc(N4CCN(C)CC4)cc3)nc2n1-c1cccc(C(C)(C)O)n1 [MK1775]",active: 4.78
18,CC(CCc1ccccc1)NCC(O)c1ccc(O)c(C(N)=O)c1 (centres undefined) [Labetalol hydrochloride] + C=CCn1c(=O)c2cnc(Nc3ccc(N4CCN(C)CC4)cc3)nc2n1-c1cccc(C(C)(C)O)n1 [MK1775],inactive: -0.197
19,Cc1cc(C(C)(C)C)c(O)c(C)c1CC1=NCCN1 [Oxymetazoline hydrochloride] + C=CCn1c(=O)c2cnc(Nc3ccc(N4CCN(C)CC4)cc3)nc2n1-c1cccc(C(C)(C)O)n1 [MK1775],inactive: -0.791
20,O=c1cc(N2CCOCC2)oc2c(-c3cccc4c3sc3ccccc34)cccc12 + C=CCn1c(=O)c2cnc(Nc3ccc(N4CCN(C)CC4)cc3)nc2n1-c1cccc(C(C)(C)O)n1 [MK1775],inactive: -0.614
21,CC(C)(C(=O)O)c1ccc(C(O)CCCN2CCC(C(O)(c3ccccc3)c3ccccc3)CC2)cc1 (centres undefined) [Fexofenadine hydrochloride] + C=CCn1c(=O)c2cnc(Nc3ccc(N4CCN(C)CC4)cc3)nc2n1-c1cccc(C(C)(C)O)n1 [MK1775],inactive: 0.658
22,CC(N)=NCCCC[C@H](N)C(=O)O [L-N6-(1-Iminoethyl)lysine hydrochloride] + C=CCn1c(=O)c2cnc(Nc3ccc(N4CCN(C)CC4)cc3)nc2n1-c1cccc(C(C)(C)O)n1 [MK1775],inactive: -0.274
23,Cc1ccc(O)c(N=Nc2ccccc2)n1 + C=CCn1c(=O)c2cnc(Nc3ccc(N4CCN(C)CC4)cc3)nc2n1-c1cccc(C(C)(C)O)n1 [MK1775],inactive: -0.449
24,O=C(O)CCC(NC(=O)c1ccccc1C(=O)O)C(=O)O [Phthalamoyl-L-glutamic acid trisodium] + C=CCn1c(=O)c2cnc(Nc3ccc(N4CCN(C)CC4)cc3)nc2n1-c1cccc(C(C)(C)O)n1 [MK1775],inactive: 0.539

# In a second layout: entries from further up.
row | Structure (SMILES) | Z' of S-phase gammaH2AX difference (Z-score)
9 | CN1CCc2cc(O)c(O)cc2C(c2ccccc2)C1 (centres undefined) + C=CCn1c(=O)c2cnc(Nc3ccc(N4CCN(C)CC4)cc3)nc2n1-c1cccc(C(C)(C)O)n1 [MK1775] | inactive: -0.647
10 | CN1C(C)(C)CCCC1(C)C [Pempidine tartrate] + C=CCn1c(=O)c2cnc(Nc3ccc(N4CCN(C)CC4)cc3)nc2n1-c1cccc(C(C)(C)O)n1 [MK1775] | inactive: 0.815
11 | CCCCCC[C@@H]([C@@H](C)O)n1cnc2c(N)ncnc21 [erythro-9-(2-Hydroxy-3-nonyl)adenine hydrochloride] + C=CCn1c(=O)c2cnc(Nc3ccc(N4CCN(C)CC4)cc3)nc2n1-c1cccc(C(C)(C)O)n1 [MK1775] | inactive: 1.22
12 | CC[N+](C)(C)Cc1ccccc1Br [Bretylium tosylate] + C=CCn1c(=O)c2cnc(Nc3ccc(N4CCN(C)CC4)cc3)nc2n1-c1cccc(C(C)(C)O)n1 [MK1775] | inactive: 0.301
13 | C[N+](C)(C)CCCCCC[N+](C)(C)C [Hexamethonium bromide] + C=CCn1c(=O)c2cnc(Nc3ccc(N4CCN(C)CC4)cc3)nc2n1-c1cccc(C(C)(C)O)n1 [MK1775] | inactive: -0.634
14 | C[N+](C)(C)CCCCCC[N+](C)(C)C [Hexamethonium dichloride] + C=CCn1c(=O)c2cnc(Nc3ccc(N4CCN(C)CC4)cc3)nc2n1-c1cccc(C(C)(C)O)n1 [MK1775] | inactive: 0.59
